Results published in PubChem BioAssay AID2685 (National Center for Advancing Translational Sciences (NCATS), 2010).
The other results are listed elsewhere or left out. Shown are side measurements of this screen, not its main read-out; they come without a call. Most of these compounds were active or inconclusive in the main read-out, so they are no random draw. Potencies come from curve fits of mixed quality, noted in brackets.

Test: qHTS Assay for Lipid Storage Modulators in Drosophila S3 Cells;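 as to cell number change: cells counted by Cell Tracker Red CMTPX staining in the red channel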
Details: BODIPY lipid droplet fluorescence, 18-24 h; for cell number change: measured here: cell count max response, cells fed with added oleic acid
Summary of the method: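 Drosophila S3 cells got compounds at several concentrations plus oleic acid (400 uM solution). Laser-scanning cytometry with 488 nm excitation read lipid droplets at 500-530 nm and cells at 575-640 nm. Percent activity was relative to 20 uM Triacsin C.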

[1] = measured here: cell number channel AC50, cells fed with added oleic acid
[2] = measured here: lipid fluorescence (Fed channel) AC50, cells fed with added oleic acid

## COc1ccc(N2CCN(C(=O)COC(=O)COc3cc(C)cc(C)c3)CC2)cc1
  cell number change: -35.7%
[1]
  AC50: 11.6 µM [falling, partial curve]

## Cc1ccc(S(=O)(=O)NCCN=C(CN2CCOCC2)NS(=O)(=O)c2ccc(C)cc2)cc1
  cell number change: 80.5%
[1]
  AC50: 13 µM [rising, partial curve]
[2]
  AC50: 6.51 µM [rising, single point]

## CC(=O)N/C(=N\OCc1ccc(Br)cc1)c1nonc1NC(C)=O
  cell number change: 2.88%
[2]
  AC50: 2.31 µM [rising, full curve, poor fit]

## COc1ccc2nc(Nc3ccccc3OC)sc2c1
  cell number change: 11.2%

## COc1cc(N)c(Cl)cc1C(=O)N[C@H]1CCN(CCCOc2ccc(F)cc2)C[C@H]1OC
  cell number change: -3.12%
[2]
  AC50: 2.91 µM [rising, full curve]

## Oc1ccc(C=Nc2cccc3ccccc23)c(O)c1
  cell number change: -27.4%

## CCC(=O)OCC(=O)Nc1cc(S(=O)(=O)N(C)C)ccc1Cl
  cell number change: 11.7%
[1]
  AC50: 0.103 µM [rising, full curve, poor fit]

## CN(CC(=O)Nc1ccccc1Br)C(=O)c1ccc(COc2ccccc2)cc1
  cell number change: 30.8%
[1]
  AC50: 0.082 µM [rising, full curve, poor fit]

## CCC(=O)Nc1ccc(S(=O)(=O)Nc2c(C)nc3nc[nH]n3c2=O)cc1
  cell number change: -0.84%
[2]
  AC50: 0.146 µM [falling, single point]

## Cc1cc(C)c2c(CC(=O)O)c(C)[nH]c2c1
  cell number change: 16.5%

## N#C/C(=C\c1ccc[nH]1)Sc1nc2ccccc2s1
  cell number change: -0.323%

## O=c1ccc(-c2ccc(S(=O)(=O)Nc3cccc([N+](=O)[O-])c3)s2)n[nH]1
[2]
  AC50: 29.1 µM [falling, single point]

## CN(C)S(=O)(=O)c1ccc(C(=O)Nc2nc(-c3cccs3)cs2)cc1
  cell number change: -21%
[2]
  AC50: 9.2 µM [falling, partial curve]

## COc1ccc(OC(=O)c2c(C)nn(-c3ccccc3)c2C)cc1
  cell number change: -38.5%
[1]
  AC50: 29.1 µM [falling, single point]

## CCCn1nnnc1NCc1ccccc1OCC
  cell number change: 32.7%
[1]
  AC50: 4.61 µM [rising, partial curve, poor fit]

## Cn1c(-c2ccc(Cl)cc2)cnc1N
  cell number change: 18.1%

## COc1ccc(Cn2c(=N)c(C(=O)NC3CCCCC3)cc3c(=O)n4ccccc4nc32)cc1
[1]
  AC50: 0.411 µM [falling, single point]

## COc1ccc(C(=O)NC(NC(=O)c2ccc(OC)cc2)c2ccccc2F)cc1
  cell number change: 158%
[1]
  AC50: 14.6 µM [rising, partial curve]

## CCCn1c(SCc2ccccc2)nc2c1c(=O)[nH]c(=O)n2C
  cell number change: 7.34%
[2]
  AC50: 9.2 µM [rising, partial curve]

## Cc1ccc(NC(=O)COc2ccc(-n3ccnc3)cc2)cc1Cl
  cell number change: -29%
[2]
  AC50: 29.1 µM [falling, single point]

## Cc1cccc(-n2c(=O)c3ccccc3n3c(=S)[nH]nc23)c1C
  cell number change: 6.52%
[2]
  AC50: 6.51 µM [falling, partial curve, poor fit]

## CC(C)c1ccc(OCC(=O)NCc2ccccc2)cc1
  cell number change: 7.94%

## COc1ccc(/C(N)=N/OC(=O)CCCN2C(=O)c3ccccc3C2=O)cc1OC
  cell number change: 3.28%
[1]
  AC50: 2.31 µM [rising, partial curve]
[2]
  AC50: 4.11 µM [rising, single point]

## Cc1ccc(-n2nc3cc(C)c(NC(=S)NC(=O)/C=C/c4ccco4)cc3n2)cc1
[2]
  AC50: 0.92 µM [rising, full curve, poor fit]

## C/C(CC(=O)NC(C)C)=N\NC(=O)C(c1ccccc1)c1ccccc1
  cell number change: 23.2%
[2]
  AC50: 0.291 µM [rising, partial curve, poor fit]

## N#Cc1cc2sc3nc4ccccc4n3c2cc1C#N
  cell number change: 15%

## COc1ccc(NC(=O)C2CCCCN2CC(=O)OCc2ccccc2)cc1OC (stereo not given)
[2]
  AC50: 9.2 µM [rising, partial curve, poor fit]

## COc1cc(CCC(=O)OCC(=O)Nc2ccc(F)c(F)c2)cc(OC)c1OC
[2]
  AC50: 5.17 µM [rising, single point]

## CC(C)(C)c1csc(NC(=O)c2ccncc2)n1
  cell number change: -1.92%
[1]
  AC50: 6.51 µM [rising, single point]

## CC(C)(C)c1ccccc1NC(=S)NC1CCCC1
[2]
  AC50: 0.58 µM [falling, single point]

## CCNc1nnc(SCC(=O)N2c3ccccc3NC(=O)CC2C)s1 (stereo not given)
  cell number change: 0.413%

## COC(=O)C(C)Sc1nc2c([nH]c3ccccc32)c(=O)n1C (stereo not given)
  cell number change: -38.3%
[1]
  AC50: 29.1 µM [falling, single point]
[2]
  AC50: 0.082 µM [rising, full curve, poor fit]

## Cc1ccc(/C=N/NC(=O)Cn2cnc3ccccc32)cc1
[1]
  AC50: 0.58 µM [falling, single point]
[2]
  AC50: 0.58 µM [falling, single point]

## Cc1ccccc1OCC(=O)NC(=S)Nc1ccc2c3c(cccc13)CC2
  cell number change: -15.9%
[2]
  AC50: 1.84 µM [falling, partial curve]

## COc1cc(CCC(=O)NCc2ccc(F)cc2)cc(OC)c1OC
  cell number change: 5.41%
[2]
  AC50: 6.51 µM [falling, single point]

## COc1cccc(CNc2cccc(C(F)(F)F)c2)c1O
  cell number change: -42.6%
[1]
  AC50: 29.1 µM [falling, single point]
[2]
  AC50: 23.1 µM [falling, single point]

## Nc1c(C(=O)NCCN2CCOCC2)c2nc3ccccc3nc2n1-c1cccc(F)c1
  cell number change: -80.9%
[1]
  AC50: 14.6 µM [falling, single point]
[2]
  AC50: 29.1 µM [falling, single point]

## CCOc1ccc2c(C)cc(=O)oc2c1OCC
  cell number change: -23.5%
[2]
  AC50: 14.6 µM [falling, partial curve, poor fit]

## O=[N+]([O-])c1ccc(Oc2ccc(-c3nnco3)cc2)c(Cl)c1
[2]
  AC50: 0.00461 µM [rising, full curve, poor fit]

## CCN(CCCNC(=O)CCC(=O)N1CCOc2ccccc21)Cc1ccccc1
  cell number change: 29.4%
[2]
  AC50: 6.51 µM [rising, single point]

## O=C(COc1ccccc1O)NC1CCCC1
  cell number change: -18.5%
[1]
  AC50: 0.259 µM [falling, partial curve, poor fit]

## CCOC(=O)c1cc2sccc2n1CC(=O)Nc1ccc(OC)cc1
  cell number change: -24.4%
[1]
  AC50: 2.59 µM [falling, full curve, poor fit]
[2]
  AC50: 3.66 µM [falling, single point]

## CCOC(=O)CC(=O)Nc1cc(Cl)ccc1O
  cell number change: -1.69%
[2]
  AC50: 29.1 µM [falling, single point]

## Nc1nc(SCC(=O)NC2CCCCC2)n[nH]1
  cell number change: -0.0276%

## O=C(N/N=C/c1sc(N2CCOCC2)nc1-c1ccccc1)c1ccc(O)cc1
  cell number change: -13.4%
[2]
  AC50: 16.4 µM [falling, single point]

## COc1ccc(CCNC(=O)c2ccc3nc[nH]c3c2)cc1
  cell number change: 19.1%
[2]
  AC50: 20.6 µM [rising, single point]

## CCOC(=O)c1cnc2nc(SC)nn2c1N
  cell number change: -23.6%

## CCc1ccc(C2=NN(C(=O)CCC(=O)O)C(c3cccs3)C2)cc1 (stereo not given)
[2]
  AC50: 20.6 µM [falling, single point]

## Cc1nnsc1C(=O)NC1CCCc2c1cnn2-c1ccc(F)cc1F (stereo not given)
  cell number change: -39.9%
[1]
  AC50: 8.2 µM [falling, partial curve, poor fit]
[2]
  AC50: 2.06 µM [falling, full curve]

## COc1ccc(OC)c(S(=O)(=O)Nc2cc3c4c(c2)CC(=O)N4CCC3)c1
[1]
  AC50: 0.0651 µM [rising, full curve]
[2]
  AC50: 0.116 µM [rising, full curve]

## COc1ccc(S(=O)(=O)N(C)C)cc1NS(=O)(=O)c1ccc(F)c(F)c1F
  cell number change: -11.9%
[2]
  AC50: 6.51 µM [falling, single point]

## Cc1c(NC(=O)c2ccc(NS(=O)(=O)c3ccccc3)cc2)c(=O)n(-c2ccccc2)n1C
  cell number change: -14.4%
[2]
  AC50: 29.1 µM [falling, single point]

## Cc1cc2nnc(SCC(=O)NC3CCCCC3)n2c(N)n1
  cell number change: 14.3%

## c1ccc(OCCCc2nc(-c3ccccn3)no2)cc1
[1]
  AC50: 6.51 µM [rising, single point]

## NC(=O)c1c(NC(=O)c2cccnc2Cl)sc2c1CCCC2
  cell number change: -14.6%
[1]
  AC50: 0.731 µM [falling, full curve, poor fit]
[2]
  AC50: 18.4 µM [rising, single point]

## Cc1ccc(NC(=O)c2c(C)noc2C)cc1
  cell number change: 11.9%
[2]
  AC50: 0.116 µM [rising, full curve, poor fit]

## CSc1nc(C)c(CCOCc2ccc(F)cc2)c(=O)[nH]1
  cell number change: -53.2%

## N#CC1(NC(=O)COC(=O)c2ncc(Cl)c(Cl)c2Cl)CCCCC1
  cell number change: -32.3%
[1]
  AC50: 14.6 µM [falling, partial curve]
[2]
  AC50: 11.6 µM [falling, partial curve]

## CC12CC3CC(C)(C1)CC(C(=O)N1CCN(C(=O)c4ccco4)CC1)(C3)C2
  cell number change: -29.4%
[2]
  AC50: 20.6 µM [falling, partial curve]

## CCOc1cc(N2CCOCC2)c(OCC)cc1NC(=O)Cn1cnc2c(=O)n(C)c(=O)n(C)c21
  cell number change: 12.7%
[1]
  AC50: 0.00517 µM [rising, full curve, poor fit]

## CCOC(=O)c1cc2c(nc1N)CCCC2
  cell number change: 10.6%
[2]
  AC50: 29.1 µM [rising, single point]

## C/C(=N\NC(=O)CSc1nc2ccccc2c(=O)n1-c1ccccc1C)c1cccs1
  cell number change: -26.8%
[2]
  AC50: 2.06 µM [rising, full curve]

## O=C(Cc1n[nH]c(=O)c2ccccc12)OCC(=O)c1ccc2c(c1)OCCO2
  cell number change: -11.2%

## C[C@H](O)[C@H](O)[C@H]1CNc2nc(N)[nH]c(=O)c2N1
  cell number change: -16.9%
[2]
  AC50: 0.206 µM [falling, full curve, poor fit]
